{"source": "PubChem BioAssay AID652243 | Drosophila RNAi Screening Center | 2013", "screen": "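Fly regulators of androgen-dependent reporter output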 (primary screen)", "cell system": "Drosophila S2R+ cells", "reagent": "long dsRNA against Drosophila genes", "timing": "72 h (48 h, then 24 h hormone)", "treatment": "synthetic androgen R1881 at 10 nM for 24 h", "measured": "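Firefly light from an androgen-responsive reporter and Renilla control light per well, raw and unnormalised, for each of two replicates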", "scale": "firefly reporter light: higher = more light from androgen-responsive reporter; Renilla control light: higher = more constitutive control signal (cell number, transfection)", "call rule": "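Across duplicate plates, a knock-down whose log firefly/Renilla ratio shifted a set fold down or up from the GFP/LacZ control mean was a hit; the downward cut appears as both 1.5 and 3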", "meaning of the calls": "active = hit: reporter lowered or raised; inactive = no hit", "note": "The deposit covers about 24,000 reagents; shown is a random part of those that have a named target and a result. Over the whole deposit, 246 (1%) are marked active. 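Plates not normalised; calls are printed but the firefly/Renilla ratio behind them is not deposited; fold cut for lowering reported inconsistently.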 Raw values vary from plate to plate and are shown uncorrected. The numbers tell different reagents against one gene apart. No sequences are given here. The record does not give: the amount of reagent."}
{"gene knocked down":"CtsL3 (Cathepsin L3)","reagent":1,"firefly reporter light, replicate 1":43355,"firefly reporter light, replicate 2":50351,"Renilla control light, replicate 1":6.29e5,"Renilla control light, replicate 2":4.86e5,"Outcome":"inactive"}
{"gene knocked down":"CtsL3 (Cathepsin L3)","reagent":2,"firefly reporter light, replicate 1":3.37e5,"firefly reporter light, replicate 2":2.17e5,"Renilla control light, replicate 1":5.28e5,"Renilla control light, replicate 2":4.47e5,"Outcome":"inactive"}
{"gene knocked down":"meso18E","reagent":1,"firefly reporter light, replicate 1":1.50e5,"firefly reporter light, replicate 2":1.60e5,"Renilla control light, replicate 1":5.70e5,"Renilla control light, replicate 2":4.40e5,"Outcome":"inactive"}
{"gene knocked down":"meso18E","reagent":2,"firefly reporter light, replicate 1":3.14e5,"firefly reporter light, replicate 2":2.27e5,"Renilla control light, replicate 1":5.07e5,"Renilla control light, replicate 2":4.33e5,"Outcome":"inactive"}
{"gene knocked down":"Spn28F (Serpin 28F)","reagent":1,"firefly reporter light, replicate 1":1.14e5,"firefly reporter light, replicate 2":2.01e5,"Renilla control light, replicate 1":1.56e6,"Renilla control light, replicate 2":1.80e6,"Outcome":"inactive"}
{"gene knocked down":"Spn28F (Serpin 28F)","reagent":2,"firefly reporter light, replicate 1":5.39e5,"firefly reporter light, replicate 2":5.14e5,"Renilla control light, replicate 1":1.21e6,"Renilla control light, replicate 2":7.89e5,"Outcome":"inactive"}
{"gene knocked down":"nrv2 (nervana 2)","reagent":1,"firefly reporter light, replicate 1":1.17e5,"firefly reporter light, replicate 2":1.37e5,"Renilla control light, replicate 1":2.39e5,"Renilla control light, replicate 2":2.02e5,"Outcome":"inactive"}
{"gene knocked down":"nrv2 (nervana 2)","reagent":2,"firefly reporter light, replicate 1":8.49e5,"firefly reporter light, replicate 2":1.10e6,"Renilla control light, replicate 1":1.45e6,"Renilla control light, replicate 2":1.88e6,"Outcome":"inactive"}
{"gene knocked down":"CG15773","reagent":1,"firefly reporter light, replicate 1":2.55e5,"firefly reporter light, replicate 2":3.53e5,"Renilla control light, replicate 1":2.01e6,"Renilla control light, replicate 2":1.31e6,"Outcome":"inactive"}
{"gene knocked down":"RpL35 (Ribosomal protein L35)","reagent":1,"firefly reporter light, replicate 1":1.12e5,"firefly reporter light, replicate 2":1.74e5,"Renilla control light, replicate 1":1.34e6,"Renilla control light, replicate 2":1.70e6,"Outcome":"inactive"}
{"gene knocked down":"Tpc2","reagent":1,"firefly reporter light, replicate 1":2.24e5,"firefly reporter light, replicate 2":2.53e5,"Renilla control light, replicate 1":1.45e6,"Renilla control light, replicate 2":1.71e6,"Outcome":"inactive"}
{"gene knocked down":"CG10748","reagent":1,"firefly reporter light, replicate 1":1.90e5,"firefly reporter light, replicate 2":1.96e5,"Renilla control light, replicate 1":2.41e6,"Renilla control light, replicate 2":1.83e6,"Outcome":"inactive"}
